LD50/IC50 data for 23 molecules are collected here from patent US20110166144A1, “Pyrimidotriazinediones and Pyrimidopyrimidinediones and Methods of Using the Same” (THE REGENTS OF THE UNIVERSITY OF MICHIGAN, priority 2008, published 2011).

This series relates to β-catenin/TCF complex. Format: cell-based. The conditions noted are these: ratio of WST-1 LD50 to reporter IC50 in IEC18 cells.
Consider `Cn1nc(-c2ccccc2F)nc2c(=O)n(C)c(=O)nc1-2` [Compound 5g, 3-(2-Fluorophenyl)-1,6-dimethylpyrimido[5,4-e][1,2,4]triazine-5,7(1H,6H)-dione], for which the LD50/IC50 amounted to 3.64.
Consider `Cn1c(=O)nc2n(CCO)nc(-c3ccc(OCCN4CCCC4)cc3)nc-2c1=O` [Compound 8f, 1-(2-Hydroxyethyl)-6-methyl-3-(4-(2-(pyrrolidin-1-yl)ethoxy)phenyl)pyrimido[5,4-e][1,2,4]triazine-5,7(1H,6H)-dione], for which the LD50/IC50 stood at 1.16.
On to `Cn1c(=O)c2nc(-c3ccc(F)cc3)nnc2n(Cc2ccc(C(C)(C)C)cc2)c1=O` [Compound 7h, 8-(4-tert-Butylbenzyl)-3-(4-fluorophenyl)-6-methylpyrimido[5,4-e][1,2,4]triazine-5,7(6H,8H)-dione], for which the LD50/IC50 is recorded as over 909.
For `Cn1c(=O)nc2n(CCO)nc(-c3ccc(Cl)cc3)nc-2c1=O` [Compound 8c, 3-(4-Chlorophenyl)-1-(2-hydroxyethyl)-6-methylpyrimido[5,4-e][1,2,4]triazine-5,7(1H,6H)-dione], the LD50/IC50 was found to be 1.39.
Turning to `Cn1nc(-c2cccc(Cl)c2)nc2c(=O)n(C)c(=O)nc1-2` [Compound 5i, 3-(3-Chlorophenyl)-1,6-dimethylpyrimido[5,4-e][1,2,4]triazine-5,7(1H,6H)-dione], the LD50/IC50 came out at 4.75.
For the molecule `Cc1ccc(-c2nc3c(=O)n(C)c(=O)nc-3n(C)n2)cc1` [Compound 5e, 1,6-Dimethyl-3-(4-methylphenyl)pyrimido[5,4-e][1,2,4]triazine-5,7(1H,6H)-dione], the LD50/IC50 is 1.23.
The same measure for `Cc1nc2c(=O)n(C)c(=O)nc-2n(C)n1` [Compound 5b, 1,3,6-Trimethylpyrimido[5,4-e][1,2,4]triazine-5,7(1H,6H)-dione]: 2.02.
The same measure for `CCc1nc2c(=O)n(C)c(=O)nc-2n(C)n1` [Compound 5c, 3-Ethyl-1,6-dimethylpyrimido[5,4-e][1,2,4]triazine-5,7(1H,6H)-dione]: 2.07; for `Cn1nc(-c2ccccc2)nc2c(=O)n(C)c(=O)nc1-2` [Compound 5d, 1,6-Dimethyl-3-phenylpyrimido[5,4-e][1,2,4]triazine-5,7(1H,6H)-dione]: 2.62.
The same measure for `Cn1c(=O)nc2n(CCO)nc(-c3ccccc3)nc-2c1=O` [Compound 8a, 1-(2-Hydroxyethyl)-6-methyl-3-phenylpyrimido[5,4-e][1,2,4]triazine-5,7(1H,6H)-dione]: 2.16; for `Cn1nc(-c2ccc(Cl)cc2)nc2c(=O)n(C)c(=O)nc1-2` [Compound 5h, 3-(4-Chlorophenyl)-1,6-dimethylpyrimido[5,4-e][1,2,4]triazine-5,7(1H,6H)-dione]: 2.70; for `Cn1nc(-c2ccc(Cl)cc2)[n+]([O-])c2c(=O)n(C)c(=O)nc1-2`: 2.87.
For the molecule `CCN(CC)CCOc1ccc(-c2nc3c(=O)n(C)c(=O)nc-3n(C)n2)cc1` [Compound 5l, 3-(4-(2-(Diethylamino)ethoxy)phenyl)-1,6-dimethylpyrimido[5,4-e][1,2,4]triazine-5,7(1H,6H)-dione], the LD50/IC50 amounted to 8.32.
In the case of `COc1ccc(-c2nc3c(=O)n(C)c(=O)nc-3n(CCO)n2)cc1` [Compound 8e, 1-(2-Hydroxyethyl)-3-(4-methoxyphenyl)-6-methylpyrimido[5,4-e][1,2,4]triazine-5,7(1H,6H)-5,7-dione], the LD50/IC50 was 1.38.
For `Cc1ccc(-c2nc3c(=O)n(C)c(=O)nc-3n(CCO)n2)cc1` [Compound 8b, 1-(2-Hydroxyethyl)-6-methyl-3-(4-methylphenyl)pyrimido[5,4-e][1,2,4]triazine-5,7(1H,6H)-dione] the value was 7.94; for `Cn1c(=O)nc2n(CCO)nc(-c3ccccn3)nc-2c1=O` [Compound 8j, 1-(2-Hydroxyethyl)-6-methyl-3-(pyridin-2-yl)pyrimido[5,4-e]-[1,2,4]triazine-5,7(1H,6H)-dione], 2.51.
For `Cc1ccc(-c2n[nH]c3nc(=O)n(C)c(=O)c-3n2)cc1` [Compound 6a, 6-Methyl-3-p-tolylpyrimido[5,4-e][1,2,4]triazine-5,7(1H,6H)-dione], the LD50/IC50 is over 2.37.
As to `Cn1nc(-c2ccc(F)cc2)nc2c(=O)n(C)c(=O)nc1-2` [Compound 5f, 3-(4-Fluorophenyl)-1,6-dimethylpyrimido[5,4-e][1,2,4]triazine-5,7(1H,6H)-dione], the LD50/IC50 came to 3.67.
On to `Cn1c(=O)c2nc(-c3ccccc3F)nnc2n(Cc2ccccc2)c1=O` [Compound 7d, 8-Benzyl-3-(2-fluorophenyl)-6-methylpyrimido[5,4-e][1,2,4]triazine-5,7(6H,8H)-dione], for which the LD50/IC50 is on record as over 13.59.
The same measure for `CCN(CC)CCOc1ccc(-c2nnc3c(n2)c(=O)n(C)c(=O)n3Cc2ccc(F)c(F)c2)cc1` [Compound 10g, 3-(4-(2-(Diethylamino)ethoxy)phenyl)-8-(3,4-difluorobenzyl)-6-methylpyrimido[5,4-e][1,2,4]triazine-5,7(6H,8H)-dione]: 3.67.
With `CCN(CC)CCOc1ccc(-c2nnc3c(n2)c(=O)n(C)c(=O)n3Cc2cccc(F)c2)cc1` [Compound 10c, 3-(4-(2-(Diethylamino)ethoxy)phenyl)-8-(3-fluorobenzyl)-6-methylpyrimido[5,4-e][1,2,4]triazine-5,7(6H,8H)-dione], the LD50/IC50 was determined as 0.92.
With `Cn1nc(-c2ccccc2)[n+]([O-])c2c(=O)n(C)c(=O)nc1-2`, the LD50/IC50 came out at 3.49.
`Cn1nc(-c2ccccc2F)nc2c(=O)n(Cc3ccc(F)c(F)c3)c(=O)nc1-2` [Compound 17e, 6-(3,4-Difluorobenzyl)-3-(2-fluorophenyl)-1-methylpyrimido[5,4-e][1,2,4]triazine-5,7(1H,6H)-dione]: the LD50/IC50 is 4.36.
